Values of other authors in US20230113398A1, “INEXPENSIVE METAL-FREE ORGANIC REDOX FLOW BATTERY (ORBAT) FOR GRID-SCALE STORAGE” (UNIVERSITY OF SOUTHERN CALIFORNIA, priority 2013, published 2023).
For at least one compound, name, drawing or mass did not settle the structure.

Conditions: cited from earlier work

Row | SMILES | Specific Capacity, Ah/kg [Ah/kg]
1 | O=C1C=CC(=O)c2ccccc21 [1,4-naphthaquinone] | 339
2 | O=C1C=C(S(=O)(=O)O)C(=O)c2ccccc21 [1,4-naphthaquinone-2-sulfonic acid] | 194
3 | O=C1C=C(O)C(=O)c2ccccc21 [2-hydroxy-1,4-naphthaquinone] | 308
